Source: publication PMC9092175
No constants are given. Whether binding was seen depends on the method and setting.

Molecular target: plant virus-based immunosorbent nanoparticle (VIN): assembled turnip vein clearing virus (TVCV) virion of coat protein Fc-affinity ligand fusion (CP-FcAL) (turnip vein clearing virus | S. aureus) (UniProt Q88922)
Assay: co-sedimentation; affinity sedimentation: purified VIN mixed in free suspension with a pre-purified target; VIN-target complex pelleted (12,000 x g, 10 min for hIgG; 20,000 x g, 20 min for the Fc-fusions); eluted with 0.1 M glycine-HCl pH 2.5; SDS-PAGE and Western blot; both purified

**Q.** How did the binding turn out when “bovine serum albumin (BSA) (from UniProt P02769 25-607)” was run?
**A.** no binding
